Measurements taken from PMC5996148.
Where “and” joins values, the source holds several entries; their conditions need not be identical. Identical values can stand only once. The list shows a part of the results. For some of these results: The exact form of the protein is not confirmed.

Protein sequences, listed by entry. Tags and fused reporters are not part of them. Lines headed by an entry give the natural chain unless they say otherwise; changes in a name come on top.
UniProt Q15059: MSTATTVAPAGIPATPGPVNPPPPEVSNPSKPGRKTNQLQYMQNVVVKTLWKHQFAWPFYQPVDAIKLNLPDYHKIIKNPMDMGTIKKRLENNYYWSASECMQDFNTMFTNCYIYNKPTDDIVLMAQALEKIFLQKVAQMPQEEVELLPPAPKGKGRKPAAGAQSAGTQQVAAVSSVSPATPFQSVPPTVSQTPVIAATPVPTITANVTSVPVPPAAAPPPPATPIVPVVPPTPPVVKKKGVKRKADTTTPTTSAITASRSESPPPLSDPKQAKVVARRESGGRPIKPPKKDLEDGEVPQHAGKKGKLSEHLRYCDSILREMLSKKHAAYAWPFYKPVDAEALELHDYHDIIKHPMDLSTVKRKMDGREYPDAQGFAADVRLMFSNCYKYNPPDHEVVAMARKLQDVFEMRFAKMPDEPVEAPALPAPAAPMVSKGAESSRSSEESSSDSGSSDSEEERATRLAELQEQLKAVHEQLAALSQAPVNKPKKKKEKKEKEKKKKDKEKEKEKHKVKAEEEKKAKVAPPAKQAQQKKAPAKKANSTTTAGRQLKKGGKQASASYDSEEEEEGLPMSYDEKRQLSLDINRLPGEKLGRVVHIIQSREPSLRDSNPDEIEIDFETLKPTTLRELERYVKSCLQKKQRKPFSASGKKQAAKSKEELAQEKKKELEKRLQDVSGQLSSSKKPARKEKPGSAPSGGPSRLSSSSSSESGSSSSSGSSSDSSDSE

Key:
Experiment in all cases: protein microarray (ProtoArray v5.0), streptavidin-Alexa Fluor 647
Conditions in all cases: 3'-biotin; 20 mM Tris (pH 7.5), 5 mM MgCl2, 100 mM KCl, 0.1% Tween-20, A/T-rich and random oligonucleotide blockers; temperature not stated; high values mean tight binding
BIN1 = target: T1, BIN1 (UniProt O00499)
T1 sequence: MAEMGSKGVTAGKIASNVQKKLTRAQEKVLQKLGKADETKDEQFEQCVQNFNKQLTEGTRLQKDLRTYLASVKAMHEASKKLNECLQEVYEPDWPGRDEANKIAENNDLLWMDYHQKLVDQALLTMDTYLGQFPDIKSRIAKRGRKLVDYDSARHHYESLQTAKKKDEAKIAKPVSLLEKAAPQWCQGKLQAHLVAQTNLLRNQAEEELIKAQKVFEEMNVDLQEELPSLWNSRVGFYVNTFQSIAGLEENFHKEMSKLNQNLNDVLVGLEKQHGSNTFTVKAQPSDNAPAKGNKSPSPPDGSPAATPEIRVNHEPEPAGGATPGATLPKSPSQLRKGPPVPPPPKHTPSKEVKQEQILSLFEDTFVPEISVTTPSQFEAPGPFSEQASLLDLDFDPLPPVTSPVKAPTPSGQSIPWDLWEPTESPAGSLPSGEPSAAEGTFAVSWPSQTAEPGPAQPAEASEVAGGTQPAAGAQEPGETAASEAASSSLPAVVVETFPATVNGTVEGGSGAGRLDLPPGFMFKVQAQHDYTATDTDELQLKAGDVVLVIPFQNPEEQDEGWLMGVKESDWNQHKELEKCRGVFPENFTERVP

BIRC5 (human) = system: BIRC5 (human)
BIRC7 (human) = system: BIRC7 (human)
BMF (human) = system: BMF (human)
BRD3 = BRD3 (UniProt Q15059)
BRD9 (human) = system: BRD9 (human)
BSG = target: T2, BSG (UniProt P35613)
T2 sequence: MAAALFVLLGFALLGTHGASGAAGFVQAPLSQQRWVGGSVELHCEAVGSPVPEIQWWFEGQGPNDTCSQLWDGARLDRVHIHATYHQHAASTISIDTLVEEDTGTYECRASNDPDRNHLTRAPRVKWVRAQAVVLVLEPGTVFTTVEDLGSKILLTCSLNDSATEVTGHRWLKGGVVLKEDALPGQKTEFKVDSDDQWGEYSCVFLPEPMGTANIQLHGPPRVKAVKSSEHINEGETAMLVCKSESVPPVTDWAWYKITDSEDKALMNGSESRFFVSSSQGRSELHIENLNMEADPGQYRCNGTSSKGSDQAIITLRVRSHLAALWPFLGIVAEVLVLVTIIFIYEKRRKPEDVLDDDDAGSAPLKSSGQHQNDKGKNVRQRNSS

BTG2 (human) = system: BTG2 (human)
[1] = system: Baculoviral IAP repeat-containing protein 7 (human)
[2] = system: Band 4.1-like protein 4A (human)

## GGTGACAGGGGTATGGGGAGGGG [G4-2 biotinylated (Ct1)]
BIN1
  binding signal: -0.393 z-score and -0.376 z-score
BIRC5 (human)
  binding signal: -0.398 z-score
BIRC7 (human)
  binding signal: -0.368 z-score
BMF (human)
  binding signal: -0.392 z-score and -0.395 z-score
BRD3
  binding signal: 6.79 z-score
BRD9 (human)
  binding signal: -0.393 z-score
BSG
  binding signal: -0.377 z-score
BTG2 (human)
  binding signal: -0.376 z-score
[1]
  binding signal: -0.398 z-score
[2]
  binding signal: 4.23 z-score
